Measured values: publication doi:10.1101/2024.10.03.616509
Substitutions are numbered along the chain they refer to. Names may count otherwise. Results are given in words; binding and its absence hold for the method and conditions named. In cells and extracts the contact can be indirect. Some entries that bind do so weakly or less than the wild type. Tags and fused reporters may be left off the sequences shown.

Sequences of proteins named here, by UniProt entry; tags and fusion partners are left off.
UniProt Q9Y4E1: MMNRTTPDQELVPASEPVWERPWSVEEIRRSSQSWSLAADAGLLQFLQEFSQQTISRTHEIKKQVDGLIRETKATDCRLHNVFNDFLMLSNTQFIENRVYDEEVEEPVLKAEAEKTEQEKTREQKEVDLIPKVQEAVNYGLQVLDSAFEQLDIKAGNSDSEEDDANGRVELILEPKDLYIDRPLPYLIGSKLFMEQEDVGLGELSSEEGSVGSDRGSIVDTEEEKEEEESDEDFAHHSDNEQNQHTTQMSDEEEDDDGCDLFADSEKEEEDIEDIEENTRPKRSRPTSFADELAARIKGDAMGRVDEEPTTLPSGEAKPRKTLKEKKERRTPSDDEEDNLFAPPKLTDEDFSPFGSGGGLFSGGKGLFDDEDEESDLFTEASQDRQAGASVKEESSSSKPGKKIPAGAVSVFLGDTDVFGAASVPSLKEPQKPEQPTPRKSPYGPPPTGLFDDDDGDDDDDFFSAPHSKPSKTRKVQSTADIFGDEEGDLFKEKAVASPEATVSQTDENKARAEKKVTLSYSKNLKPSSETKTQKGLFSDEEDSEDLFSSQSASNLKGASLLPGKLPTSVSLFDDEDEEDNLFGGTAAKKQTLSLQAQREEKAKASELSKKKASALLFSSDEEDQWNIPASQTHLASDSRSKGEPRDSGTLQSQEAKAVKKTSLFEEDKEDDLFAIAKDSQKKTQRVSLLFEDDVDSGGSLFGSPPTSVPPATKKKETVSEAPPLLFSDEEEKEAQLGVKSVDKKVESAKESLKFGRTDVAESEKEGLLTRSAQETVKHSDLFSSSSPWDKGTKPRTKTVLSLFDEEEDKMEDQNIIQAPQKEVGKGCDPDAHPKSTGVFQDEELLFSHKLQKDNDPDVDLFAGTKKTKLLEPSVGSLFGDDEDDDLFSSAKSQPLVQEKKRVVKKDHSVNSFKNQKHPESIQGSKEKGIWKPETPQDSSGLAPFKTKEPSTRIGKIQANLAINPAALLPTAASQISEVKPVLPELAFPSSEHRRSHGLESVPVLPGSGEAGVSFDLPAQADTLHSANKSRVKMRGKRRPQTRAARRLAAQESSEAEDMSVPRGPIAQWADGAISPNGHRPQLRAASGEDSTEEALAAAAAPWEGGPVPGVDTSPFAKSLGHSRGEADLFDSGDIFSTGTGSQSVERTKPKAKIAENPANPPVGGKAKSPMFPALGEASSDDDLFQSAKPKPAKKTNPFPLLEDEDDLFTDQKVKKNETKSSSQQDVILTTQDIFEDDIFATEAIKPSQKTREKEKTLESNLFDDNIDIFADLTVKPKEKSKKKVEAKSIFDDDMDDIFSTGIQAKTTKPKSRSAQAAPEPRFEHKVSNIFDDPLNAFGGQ

B1: FLAG-TECPR2 (WT) (protein, UniProt O15040 1-1411)
chain: MASISEPVTFREFCPLYYLLNAIPTKIQKGFRSIVVYLTALDTNGDYIAVGSSIGMLYLYCRHLNQMRKYNFEGKTESITVVKLLSCFDDLVAAGTASGRVAVFQLVSSLPGRNKQLRRFDVTGIHKNSITALAWSPNGMKLFSGDDKGKIVYSSLDLDQGLCNSQLVLEEPSSIVQLDYSQKVLLVSTLQRSLLFYTEEKSVRQIGTQPRKSTGKFGACFIPGLCKQSDLTLYASRPGLRLWKADVHGTVQATFILKDAFAGGVKPFELHPRLESPNSGSCSLPERHLGLVSCFFQEGWVLSWNEYSIYLLDTVNQATVAGLEGSGDIVSVSCTENEIFFLKGDRNIIRISSRPEGLTSTVRDGLEMSGCSERVHVQQAEKLPGATVSETRLRGSSMASSVASEPRSRSSSLNSTDSGSGLLPPGLQATPELGKGSQPLSQRFNAISSEDFDQELVVKPIKVKRKKKKKKTEGGSRSTCHSSLESTPCSEFPGDSPQSLNTDLLSMTSSVLGSSVDQLSAESPDQESSFNGEVNGVPQENTDPETFNVLEVSGSMPDSLAEEDDIRTEMPHCHHAHGRELLNGAREDVGGSDVTGLGDEPCPADDGPNSTQLPFQEQDSSPGAHDGEDIQPIGPQSTFCEVPLLNSLTVPSSLSWAPSAEQWLPGTRADEGSPVEPSQEQDILTSMEASGHLSTNLWHAVTDDDTGQKEIPISERVLGSVGGQLTPVSALAASTHKPWLEQPPRDQTLTSSDEEDIYAHGLPSSSSETSVTELGPSCSQQDLSRLGAEDAGLLKPDQFAESWMGYSGPGYGILSLVVSEKYIWCLDYKGGLFCSALPGAGLRWQKFEDAVQQVAVSPSGALLWKIEQKSNRAFACGKVTIKGKRHWYEALPQAVFVALSDDTAWIIRTSGDLYLQTGLSVDRPCARAVKVDCPYPLSQITARNNVVWALTEQRALLYREGVSSFCPEGEQWKCDIVSERQALEPVCITLGDQQTLWALDIHGNLWFRTGIISKKPQGDDDHWWQVSITDYVVFDQCSLFQTIIHATHSVATAAQAPVEKVADKLRMAFWSQQLQCQPSLLGVNNSGVWISSGKNEFHVAKGSLIGTYWNHVVPRGTASATKWAFVLASAAPTKEGSFLWLCQSSKDLCSVSAQSAQSRPSTVQLPPEAEMRAYAACQDALWALDSLGQVFIRTLSKSCPTGMHWTRLDLSQLGAVKLTSLACGNQHIWACDSRGGVYFRVGTQPLNPSLMLPAWIMIEPPVQPAGVSLVSVHSSPNDQMLWVLDSRWNVHVRTGITEEMPVGTAWEHVPGLQACQLALSTRTVWARCPNGDLARRYGVTDKNPAGDYWKKIPGSVSCFTVTASDELWAVGPPGYLLQRLTKTFSHSHGTQKSSQAAMPHPEDLEDEWEVI
B2: endogenous TECPR2 (protein, UniProt O15040 1-1411)
chain: B1 chain
B3: MBP-TECPR2 (935-1411 aa) (domain or fragment, UniProt O15040 935-1411)
chain: YPLSQITARNNVVWALTEQRALLYREGVSSFCPEGEQWKCDIVSERQALEPVCITLGDQQTLWALDIHGNLWFRTGIISKKPQGDDDHWWQVSITDYVVFDQCSLFQTIIHATHSVATAAQAPVEKVADKLRMAFWSQQLQCQPSLLGVNNSGVWISSGKNEFHVAKGSLIGTYWNHVVPRGTASATKWAFVLASAAPTKEGSFLWLCQSSKDLCSVSAQSAQSRPSTVQLPPEAEMRAYAACQDALWALDSLGQVFIRTLSKSCPTGMHWTRLDLSQLGAVKLTSLACGNQHIWACDSRGGVYFRVGTQPLNPSLMLPAWIMIEPPVQPAGVSLVSVHSSPNDQMLWVLDSRWNVHVRTGITEEMPVGTAWEHVPGLQACQLALSTRTVWARCPNGDLARRYGVTDKNPAGDYWKKIPGSVSCFTVTASDELWAVGPPGYLLQRLTKTFSHSHGTQKSSQAAMPHPEDLEDEWEVI
B4: MBP-TECPR2_TECPR (R1336W) (domain or fragment, UniProt O15040 935-1411)
chain: B3 chain with R402W

Columns and labels:
[1] = target: T1, FLAG-TECPR2 (R1336W) (human) (UniProt O15040); test: co-IP
T1 sequence: B1 chain with R1336W

FLAG-TECPR2 (WT) (human) = target: T2, FLAG-TECPR2 (WT) (human) (UniProt O15040); test: co-IP
T2 sequence: B1 chain

GST-SNX17 = target: T3, GST-SNX17 (UniProt Q15036); test: pull-down
T3 sequence: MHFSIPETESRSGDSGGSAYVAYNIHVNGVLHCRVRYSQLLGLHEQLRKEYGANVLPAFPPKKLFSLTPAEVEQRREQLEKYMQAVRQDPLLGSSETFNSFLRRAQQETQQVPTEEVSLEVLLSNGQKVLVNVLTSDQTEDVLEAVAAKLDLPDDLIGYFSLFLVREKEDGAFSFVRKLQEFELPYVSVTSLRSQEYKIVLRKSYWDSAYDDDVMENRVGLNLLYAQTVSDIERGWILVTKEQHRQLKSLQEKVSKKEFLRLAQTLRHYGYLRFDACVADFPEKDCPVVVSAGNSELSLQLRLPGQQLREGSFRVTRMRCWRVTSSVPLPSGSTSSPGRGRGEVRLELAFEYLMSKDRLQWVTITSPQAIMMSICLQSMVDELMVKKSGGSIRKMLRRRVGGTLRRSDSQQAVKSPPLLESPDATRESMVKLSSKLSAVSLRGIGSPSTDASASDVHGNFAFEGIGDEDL

Molecule	binding [1]	binding (FLAG-TECPR2 (WT) (human))	binding (GST-SNX17)
FAM21C (from UniProt Q9Y4E1 1-1341)	binds	binds	
B1			binds
B2			binds
B3			binds
B4			binds
